Experimental data taken from doi:10.1101/2023.09.17.558147.

T1: Msh5-TurboID (S. cerevisiae) (UniProt Q12175)
T1 sequence: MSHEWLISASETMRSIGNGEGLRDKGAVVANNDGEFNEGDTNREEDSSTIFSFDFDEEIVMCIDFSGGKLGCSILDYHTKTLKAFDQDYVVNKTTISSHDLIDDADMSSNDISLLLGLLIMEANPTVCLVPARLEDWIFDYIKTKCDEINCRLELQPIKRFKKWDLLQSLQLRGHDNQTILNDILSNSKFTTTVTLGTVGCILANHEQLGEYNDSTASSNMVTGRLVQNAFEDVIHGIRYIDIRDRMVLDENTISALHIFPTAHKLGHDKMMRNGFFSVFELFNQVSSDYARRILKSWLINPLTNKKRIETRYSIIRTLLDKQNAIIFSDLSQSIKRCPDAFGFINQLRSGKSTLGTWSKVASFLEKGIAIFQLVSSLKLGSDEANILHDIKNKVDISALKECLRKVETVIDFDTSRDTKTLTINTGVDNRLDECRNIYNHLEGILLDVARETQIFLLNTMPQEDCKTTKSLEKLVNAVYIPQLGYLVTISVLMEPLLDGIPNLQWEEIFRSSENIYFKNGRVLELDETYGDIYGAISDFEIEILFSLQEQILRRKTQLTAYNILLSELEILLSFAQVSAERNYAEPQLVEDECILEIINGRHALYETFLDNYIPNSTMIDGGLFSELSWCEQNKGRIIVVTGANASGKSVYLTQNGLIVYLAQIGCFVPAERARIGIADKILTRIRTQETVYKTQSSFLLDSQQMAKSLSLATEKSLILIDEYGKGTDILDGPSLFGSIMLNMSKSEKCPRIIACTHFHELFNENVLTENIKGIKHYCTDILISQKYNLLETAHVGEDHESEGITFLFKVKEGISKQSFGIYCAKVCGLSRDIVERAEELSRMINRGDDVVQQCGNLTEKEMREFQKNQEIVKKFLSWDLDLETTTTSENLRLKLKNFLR

T2: Msh4-TurboID (S. cerevisiae) (UniProt P40965)
T2 sequence: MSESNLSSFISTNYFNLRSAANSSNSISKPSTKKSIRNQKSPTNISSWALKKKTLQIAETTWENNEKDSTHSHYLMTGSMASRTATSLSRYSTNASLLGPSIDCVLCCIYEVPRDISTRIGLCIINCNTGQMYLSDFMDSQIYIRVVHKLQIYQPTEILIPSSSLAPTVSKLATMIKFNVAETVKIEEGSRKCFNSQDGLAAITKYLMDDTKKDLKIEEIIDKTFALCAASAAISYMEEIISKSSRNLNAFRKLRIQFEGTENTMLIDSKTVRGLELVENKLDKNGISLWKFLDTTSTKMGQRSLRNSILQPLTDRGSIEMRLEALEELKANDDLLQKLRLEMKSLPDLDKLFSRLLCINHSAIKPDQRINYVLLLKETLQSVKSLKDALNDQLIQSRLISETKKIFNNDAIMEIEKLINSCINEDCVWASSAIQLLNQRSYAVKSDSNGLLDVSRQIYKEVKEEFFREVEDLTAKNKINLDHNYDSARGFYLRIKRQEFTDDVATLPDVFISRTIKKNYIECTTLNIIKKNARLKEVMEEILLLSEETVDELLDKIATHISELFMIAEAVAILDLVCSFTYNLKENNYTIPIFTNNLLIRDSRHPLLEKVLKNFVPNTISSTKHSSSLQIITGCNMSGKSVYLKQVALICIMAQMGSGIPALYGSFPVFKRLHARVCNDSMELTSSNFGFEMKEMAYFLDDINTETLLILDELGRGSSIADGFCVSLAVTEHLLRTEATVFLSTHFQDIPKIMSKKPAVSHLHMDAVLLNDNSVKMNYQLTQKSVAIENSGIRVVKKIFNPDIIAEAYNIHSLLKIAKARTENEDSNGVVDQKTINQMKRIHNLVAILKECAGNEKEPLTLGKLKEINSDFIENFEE

T3: Zip2-TurboID (S. cerevisiae) (UniProt P53061)
T3 sequence: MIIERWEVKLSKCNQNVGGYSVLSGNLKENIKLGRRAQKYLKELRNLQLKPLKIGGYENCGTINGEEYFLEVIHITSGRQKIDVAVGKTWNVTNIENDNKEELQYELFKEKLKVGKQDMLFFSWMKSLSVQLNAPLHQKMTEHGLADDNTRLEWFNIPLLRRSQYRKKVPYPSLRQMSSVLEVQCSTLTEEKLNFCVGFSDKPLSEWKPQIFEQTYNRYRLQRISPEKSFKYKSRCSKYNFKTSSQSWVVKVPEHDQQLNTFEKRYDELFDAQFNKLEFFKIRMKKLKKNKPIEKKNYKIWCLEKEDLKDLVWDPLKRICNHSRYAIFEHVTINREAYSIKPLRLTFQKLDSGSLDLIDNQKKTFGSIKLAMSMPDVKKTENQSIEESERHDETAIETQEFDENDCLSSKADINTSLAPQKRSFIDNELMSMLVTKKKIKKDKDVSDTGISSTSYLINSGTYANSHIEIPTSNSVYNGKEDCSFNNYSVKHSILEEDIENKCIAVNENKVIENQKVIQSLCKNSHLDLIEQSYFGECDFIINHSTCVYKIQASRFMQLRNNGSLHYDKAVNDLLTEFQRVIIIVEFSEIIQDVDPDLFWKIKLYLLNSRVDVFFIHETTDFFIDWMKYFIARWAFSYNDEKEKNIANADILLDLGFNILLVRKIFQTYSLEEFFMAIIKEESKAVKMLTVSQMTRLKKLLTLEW


How the values were obtained:
Experiment in all cases: proximity labelling
[1] = molecular target: T1, Msh5-TurboID (S. cerevisiae)
[2] = molecular target: T2, Msh4-TurboID (S. cerevisiae)
[3] = molecular target: T3, Zip2-TurboID (S. cerevisiae)

Binder | binding [1] | binding [2] | binding [3]
Zip2 (protein, UniProt P53061 1-704) MIIERWEVKLSKCNQNVGGYSVLSGNLKENIKLGRRAQKYLKELRNLQLKPLKIGGYENCGTINGEEYFLEVIHITSGRQKIDVAVGKTWNVTNIENDNKEELQYELFKEKLKVGKQDMLFFSWMKSLSVQLNAPLHQKMTEHGLADDNTRLEWFNIPLLRRSQYRKKVPYPSLRQMSSVLEVQCSTLTEEKLNFCVGFSDKPLSEWKPQIFEQTYNRYRLQRISPEKSFKYKSRCSKYNFKTSSQSWVVKVPEHDQQLNTFEKRYDELFDAQFNKLEFFKIRMKKLKKNKPIEKKNYKIWCLEKEDLKDLVWDPLKRICNHSRYAIFEHVTINREAYSIKPLRLTFQKLDSGSLDLIDNQKKTFGSIKLAMSMPDVKKTENQSIEESERHDETAIETQEFDENDCLSSKADINTSLAPQKRSFIDNELMSMLVTKKKIKKDKDVSDTGISSTSYLINSGTYANSHIEIPTSNSVYNGKEDCSFNNYSVKHSILEEDIENKCIAVNENKVIENQKVIQSLCKNSHLDLIEQSYFGECDFIINHSTCVYKIQASRFMQLRNNGSLHYDKAVNDLLTEFQRVIIIVEFSEIIQDVDPDLFWKIKLYLLNSRVDVFFIHETTDFFIDWMKYFIARWAFSYNDEKEKNIANADILLDLGFNILLVRKIFQTYSLEEFFMAIIKEESKAVKMLTVSQMTRLKKLLTLEW | binds | binds | 
Zip3[Δ203-482] (protein, UniProt Q06032) MGGYLAIVFIPQTNTKSMREKKQKCLKQVRRLSLISPKKYIMPDSIFEQPFVYCGVCHRRTSHGDPLRLTSCAHILCSQHSPLTSKVCPICRSSDISIINLVESKQLPTDIRIFFEPLPPLLESLYNVSQFQLNGLSKQCQYYQNHCLKLREKCARQQQLLYQAKIELDSMAILKKRIQELESVLNHNNVSSMSVGVLPTRN |  | no binding | no binding

Results are given in words; binding and its absence hold for the method and conditions named. Binding seen in cells or lysates may run through a third protein. A yes stands for co-enrichment or nearness to the bait. Other partners may have been found. For some of these results: A no says only that the protein was not detected with the bait.
